Test results published in US20180021294A1, “Ephrin Receptor A2 (EPHA2)-Targeted Docetaxel-Generating Nano-Liposome Compositions” (Merrimack Pharmaceuticals, Inc., priority 2016, published 2018).
No constants are given. Whether binding was seen depends on the method and setting. Some entries that bind do so weakly or less than the wild type.

Protein sequences, listed by entry. Tags and fused reporters are not part of them. Residues count along the entry.
UniProt P29317, residues 24-976: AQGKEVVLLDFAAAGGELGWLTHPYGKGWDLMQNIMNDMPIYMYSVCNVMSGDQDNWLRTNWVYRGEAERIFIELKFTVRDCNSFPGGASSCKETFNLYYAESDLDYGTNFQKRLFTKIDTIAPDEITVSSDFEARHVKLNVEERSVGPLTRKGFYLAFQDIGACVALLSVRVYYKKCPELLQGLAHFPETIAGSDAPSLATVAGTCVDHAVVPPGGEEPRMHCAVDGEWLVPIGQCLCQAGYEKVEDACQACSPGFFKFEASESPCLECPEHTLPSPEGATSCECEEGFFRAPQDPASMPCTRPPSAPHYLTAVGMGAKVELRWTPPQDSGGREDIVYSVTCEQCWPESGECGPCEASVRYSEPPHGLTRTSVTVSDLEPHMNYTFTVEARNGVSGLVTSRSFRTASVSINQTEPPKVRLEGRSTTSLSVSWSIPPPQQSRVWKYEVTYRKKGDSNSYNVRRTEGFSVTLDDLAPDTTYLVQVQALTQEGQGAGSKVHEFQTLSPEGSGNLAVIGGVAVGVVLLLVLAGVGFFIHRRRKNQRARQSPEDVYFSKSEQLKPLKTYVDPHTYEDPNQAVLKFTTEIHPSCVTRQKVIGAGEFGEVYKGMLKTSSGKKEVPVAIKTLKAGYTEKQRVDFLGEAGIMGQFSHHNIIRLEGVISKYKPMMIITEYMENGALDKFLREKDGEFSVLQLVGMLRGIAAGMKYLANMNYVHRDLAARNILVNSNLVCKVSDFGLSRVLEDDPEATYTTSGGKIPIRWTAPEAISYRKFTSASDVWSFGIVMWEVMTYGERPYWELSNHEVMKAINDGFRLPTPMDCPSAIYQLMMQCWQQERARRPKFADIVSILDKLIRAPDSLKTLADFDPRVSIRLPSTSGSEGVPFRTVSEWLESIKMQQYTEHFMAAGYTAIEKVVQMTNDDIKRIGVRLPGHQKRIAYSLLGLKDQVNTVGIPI

Key:
[1] = biological target: human Ephrin type-A receptor 2 (EphA2) on EphA2+ tumor cells (human) (UniProt P29317); test: 3D spheroid assay, fluorescent liposomes at 25 uM phospholipid, IncuCyte ZOOM imaging
[2] = biological target: human Ephrin type-A receptor 2 (EphA2) on EphA2+ tumor cells (human) (UniProt P29317); test: 3D spheroid assay, fluorescent liposomes, IncuCyte ZOOM imaging
[3] = biological target: human Ephrin type-A receptor 2 (EphA2) on EphA2+ tumor cells (human) (UniProt P29317); test: 3D spheroid assay, fluorescent liposomes, live imaging

Measured: binding

B1: 46scFv-ILs: EphA2-targeted immunoliposome bearing the anti-EphA2 scFv of SEQ ID NO:46 (scFv3) conjugated to PEG-DSPE (scFv)
scFv: QVQLVQSGGGLVQPGGSLRLSCAASGFTFSSYAMHWVRQAPGKGLEWVTVISPDGHNTYYADSVKGRFTISRDNSKNTLYLQMNSLRAEDTAVYYCARASVGATGPFDIWGQGTLVTVSSASTGGGGSGGGGSGGGGSGGGGSSSELTQPPSVSVAPGQTVTITCQGDSLRSYYASWYQQKPGTAPKLLIYGENNRPSGVPDRFSGSSSGTSASLTITGAQAEDEADYYCNSRDSSGTHLTVFGGGTKLTVLGGGSGGC
binds: [1] | [2] | [3]
